Measurements as given in US20240092907A1.
These are yes or no findings as the source states them, for the method shown. Some entries that bind do so weakly or less than the wild type.

Sequences of proteins named here, by UniProt entry; tags and fusion partners are left off. Residues count along the entry.
UniProt Q9H7M9, residues 33-194: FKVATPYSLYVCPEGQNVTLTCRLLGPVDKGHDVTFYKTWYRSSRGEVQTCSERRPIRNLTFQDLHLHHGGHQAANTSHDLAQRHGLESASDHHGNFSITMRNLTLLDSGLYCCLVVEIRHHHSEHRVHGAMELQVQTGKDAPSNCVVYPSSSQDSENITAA

Target: T1, full length human PSGL-1 on heparan sulfate-deficient CHO cells (pGSD-677) (human) (UniProt Q14242)
T1 sequence: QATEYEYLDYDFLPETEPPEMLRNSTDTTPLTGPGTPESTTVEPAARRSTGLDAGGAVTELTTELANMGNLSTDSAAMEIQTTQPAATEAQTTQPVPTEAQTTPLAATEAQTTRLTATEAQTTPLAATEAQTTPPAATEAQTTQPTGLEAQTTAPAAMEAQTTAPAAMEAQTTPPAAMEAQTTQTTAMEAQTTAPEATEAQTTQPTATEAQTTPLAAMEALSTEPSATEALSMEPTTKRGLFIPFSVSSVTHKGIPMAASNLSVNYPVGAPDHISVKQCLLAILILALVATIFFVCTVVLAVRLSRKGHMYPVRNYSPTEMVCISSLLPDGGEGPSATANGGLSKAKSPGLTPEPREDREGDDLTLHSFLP
Test: flow cytometry, VISTA multimer staining of heparan sulfate-deficient CHO cells transfected with human PSGL-1, pH 6.0

binding: binds
Substance: recombinant hVISTA ECD multimer (monobiotinylated hVISTA ECD on PE-streptavidin dextramers) (from UniProt Q9H7M9 33-194) (receptor)
